Assay results as given in ChEMBL document CHEMBL4316593 (Eur J Med Chem, 2019).
The source gives many values for each of these; only a part stands here.

Legend:
Type in all cases: cell-based
Conditions in all cases: U-87MG ATCC
[1] = Inhibition of RTK/PI3K/AKT/mTOR signaling in human U87 cells assessed as down regulation of EGR1 gene expression at cytotoxic IC50 measured after 48 hrs relative to control
[2] = Inhibition of RTK/PI3K/AKT/mTOR signaling in human U87 cells assessed as down regulation of BTBD11 gene expression at cytotoxic IC50 measured after 48 hrs relative to control
[3] = Inhibition of RTK/PI3K/AKT/mTOR signaling in human U87 cells assessed as down regulation of MAPRE2 gene expression at cytotoxic IC50 measured after 48 hrs relative to control
[4] = Inhibition of RTK/PI3K/AKT/mTOR signaling in human U87 cells assessed as down regulation of IFFO2 gene expression at cytotoxic IC50 measured after 48 hrs relative to control
[5] = Inhibition of RTK/PI3K/AKT/mTOR signaling in human U87 cells assessed as down regulation of SRSF7 gene expression at cytotoxic IC50 measured after 48 hrs relative to control
[6] = Inhibition of RTK/PI3K/AKT/mTOR signaling in human U87 cells assessed as down regulation of GTPBP1 gene expression at cytotoxic IC50 measured after 48 hrs relative to control
[7] = Inhibition of RTK/PI3K/AKT/mTOR signaling in human U87 cells assessed as down regulation of MED27 gene expression at cytotoxic IC50 measured after 48 hrs relative to control
[8] = Inhibition of RTK/PI3K/AKT/mTOR signaling in human U87 cells assessed as down regulation of CRK gene expression at cytotoxic IC50 measured after 48 hrs relative to control
[9] = Inhibition of RTK/PI3K/AKT/mTOR signaling in human U87 cells assessed as down regulation of DDX5 gene expression at cytotoxic IC50 measured after 48 hrs relative to control
[10] = Inhibition of RTK/PI3K/AKT/mTOR signaling in human U87 cells assessed as down regulation of ARFGEF1 gene expression at cytotoxic IC50 measured after 48 hrs relative to control
[11] = Inhibition of RTK/PI3K/AKT/mTOR signaling in human U87 cells assessed as down regulation of ANXA7 gene expression at cytotoxic IC50 measured after 48 hrs relative to control
[12] = Inhibition of RTK/PI3K/AKT/mTOR signaling in human U87 cells assessed as down regulation of BRPF3 gene expression at cytotoxic IC50 measured after 48 hrs relative to control
[13] = Inhibition of RTK/PI3K/AKT/mTOR signaling in human U87 cells assessed as down regulation of NOP58 gene expression at cytotoxic IC50 measured after 48 hrs relative to control
[14] = Inhibition of RTK/PI3K/AKT/mTOR signaling in human U87 cells assessed as down regulation of DCP1A gene expression at cytotoxic IC50 measured after 48 hrs relative to control
[15] = Inhibition of RTK/PI3K/AKT/mTOR signaling in human U87 cells assessed as down regulation of IGF2R gene expression at cytotoxic IC50 measured after 48 hrs relative to control
[16] = Inhibition of RTK/PI3K/AKT/mTOR signaling in human U87 cells assessed as down regulation of CSE1L gene expression at cytotoxic IC50 measured after 48 hrs relative to control
[17] = Inhibition of RTK/PI3K/AKT/mTOR signaling in human U87 cells assessed as up regulation of SOX12 gene expression at cytotoxic IC50 measured after 48 hrs relative to control
[18] = Inhibition of RTK/PI3K/AKT/mTOR signaling in human U87 cells assessed as up regulation of SUSD3 gene expression at cytotoxic IC50 measured after 48 hrs relative to control
[19] = Inhibition of RTK/PI3K/AKT/mTOR signaling in human U87 cells assessed as up regulation of PTPDC1 gene expression at cytotoxic IC50 measured after 48 hrs relative to control
[20] = Inhibition of RTK/PI3K/AKT/mTOR signaling in human U87 cells assessed as up regulation of FBXL19 gene expression at cytotoxic IC50 measured after 48 hrs relative to control
[21] = Inhibition of RTK/PI3K/AKT/mTOR signaling in human U87 cells assessed as up regulation of epsin 3 gene expression at cytotoxic IC50 measured after 48 hrs relative to control
[22] = Inhibition of RTK/PI3K/AKT/mTOR signaling in human U87 cells assessed as up regulation of histone deacetylase 4 gene expression at cytotoxic IC50 measured after 48 hrs relative to control
[23] = Inhibition of RTK/PI3K/AKT/mTOR signaling in human U87 cells assessed as up regulation of peptidase M20 domain containing 2 gene expression at cytotoxic IC50 measured after 48 hrs relative to control
[24] = Inhibition of RTK/PI3K/AKT/mTOR signaling in human U87 cells assessed as up regulation of endoplasmic reticulum-golgi intermediate compartment 1 gene expression at cytotoxic IC50 measured after 48 hrs relative to control
[25] = Inhibition of RTK/PI3K/AKT/mTOR signaling in human U87 cells assessed as up regulation of ring finger protein 5 gene expression at cytotoxic IC50 measured after 48 hrs relative to control
[26] = Inhibition of RTK/PI3K/AKT/mTOR signaling in human U87 cells assessed as up regulation of zinc finger protein 292 gene expression at cytotoxic IC50 measured after 48 hrs relative to control
[27] = Inhibition of RTK/PI3K/AKT/mTOR signaling in human U87 cells assessed as up regulation of zinc finger and BTB domain containing 7A gene expression at cytotoxic IC50 measured after 48 hrs relative to control
[28] = Inhibition of RTK/PI3K/AKT/mTOR signaling in human U87 cells assessed as up regulation of SH3 domain containing kinase binding protein 1 gene expression at cytotoxic IC50 measured after 48 hrs relative to control
[29] = Inhibition of RTK/PI3K/AKT/mTOR signaling in human U87 cells assessed as up regulation of mitochondrial ribosomal protein S18B gene expression at cytotoxic IC50 measured after 48 hrs relative to control
[30] = Inhibition of RTK/PI3K/AKT/mTOR signaling in human U87 cells assessed as up regulation of proline rich 11 gene expression at cytotoxic IC50 measured after 48 hrs relative to control
[31] = Inhibition of RTK/PI3K/AKT/mTOR signaling in human U87 cells assessed as up regulation of PRMT1 gene expression at cytotoxic IC50 measured after 48 hrs relative to control
[32] = Inhibition of RTK/PI3K/AKT/mTOR signaling in human U87 cells assessed as up regulation of IL18 gene expression at cytotoxic IC50 measured after 48 hrs relative to control

## CC(=O)C(=NNc1ccccc1C#N)C(C)=O
[1]
  log2FC: -3.24
[2]
  log2FC: -2.66
[3]
  log2FC: -1.73
[4]
  log2FC: -0.997
[5]
  log2FC: -0.975
[6]
  log2FC: -0.831
[7]
  log2FC: -0.719
[8]
  log2FC: -0.711
[9]
  log2FC: -0.685
[10]
  log2FC: -0.637
[11]
  log2FC: -0.567
[12]
  log2FC: -0.55
[13]
  log2FC: -0.522
[14]
  log2FC: -0.427
[15]
  log2FC: -0.42
[16]
  log2FC: -0.398
[17]
  log2FC: 2.36
[18]
  log2FC: 2.3
[19]
  log2FC: 1.73
[20]
  log2FC: 1.67
[21]
  log2FC: 1.44
[22]
  log2FC: 1.39
[23]
  log2FC: 1.3
[24]
  log2FC: 1.14
[25]
  log2FC: 1.09
[26]
  log2FC: 1.05
[27]
  log2FC: 0.921
[28]
  log2FC: 0.849
[29]
  log2FC: 0.699
[30]
  log2FC: 0.662
[31]
  log2FC: 0.603
[32]
  log2FC: 0.591
